In CN106749659A:
Results are given in words; binding and its absence hold for the method and conditions named. Some results given as binding are weak or reduced against the parent protein; the word gives no strength.

T1: 人C-反应蛋白 (human C-reactive protein, natural, extracted from human plasma, HyTest) (human) (UniProt P02741)
T1 sequence (looked up): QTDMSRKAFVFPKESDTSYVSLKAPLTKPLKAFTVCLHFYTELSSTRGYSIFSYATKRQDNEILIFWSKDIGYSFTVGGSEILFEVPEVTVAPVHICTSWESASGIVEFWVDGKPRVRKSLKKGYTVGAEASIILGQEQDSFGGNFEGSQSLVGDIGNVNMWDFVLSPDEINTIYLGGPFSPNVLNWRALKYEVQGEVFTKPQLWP

B1: 抗体 of 杂交瘤细胞株M20 (mouse monoclonal antibody in the hybridoma supernatant) (antibody, V domains shown)
VH: EVMLVESGGGLVKPGGSLKLSCAASGFTFSSYAMSWVRQTPERRLEWVATISTSGSDRYYPDSVKWRFTISRDSAKNILYLQMSSLRSEDTAMYYCARRGWDYWGQGTSVTVSA
VL: DVVMTQTPLSLPVSLGDQASISCRSSQSLVHSNGNTYLHWYLQKSGQSPKLLLYKVSNRFSGVSDRFSGSGSGTDFTLKISRVEAEDLGVYFCSQNTHVPPTFGGGTKLEIK
B2: 单链抗体P20 (anti-human C-reactive protein scFv P20) (scFv)
scFv: EVMLVESGGGLVKPGGSLKLSCAASGFTFSSYAMSWVRQTPERRLEWVATISTSGSDRYYPDSVKWRFTISRDSAKNILYLQMSSLRSEDTAMYYCARRGWDYWGQGTSVTVSAGGGGSGGGGSGGGGSDVVMTQTPLSLPVSLGDQASISCRSSQSLVHSNGNTYLHWYLQKSGQSPKLLLYKVSNRFSGVSDRFSGSGSGTDFTLKISRVEAEDLGVYFCSQNTHVPPTFGGGTKLEIKR

Tests used:
[1] = target: T1, 人C-反应蛋白 (human C-reactive protein, natural, extracted from human plasma, HyTest) (human); assay: indirect ELISA, CRP coated at 1 μg/mL, hybridoma supernatant, HRP goat anti-mouse IgG, OD450
[2] = target: T1, 人C-反应蛋白 (human C-reactive protein, natural, extracted from human plasma, HyTest) (human); assay: Western blot of natural CRP from native and SDS polyacrylamide gels, HRP-labelled scFv
[3] = target: T1, 人C-反应蛋白 (human C-reactive protein, natural, extracted from human plasma, HyTest) (human); assay: colloidal gold lateral flow sandwich, P20 as coated capture antibody

| Binder | binding [1] | binding [2] | binding [3] |
| --- | --- | --- | --- |
| B1 | binds | – | – |
| B2 | – | binds | binds |
